Results deposited as PubChem BioAssay AID1224830 (NIAID, 2016)
This is one part, drawn at random, of about 18,000 reagents tested. About 2,900 of them (16%) were called active. 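Calls are made per well; low scores hint the gene aids the LPS response, high scores that it dampens it.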 Repeated entries: four replicate wells of each siRNA pool.

- Screen: 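Host factors that control LPS-induced TNF expression in human macrophages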 (primary screen)
- Cells: human THP-1 monocytic leukaemia cells, TNF dual-luciferase reporter clone, PMA-differentiated to macrophage-like cells
- Reagent: siRNA pool against human genes, 50 nM
- Time to read-out: LPS for 4 h, given about 3 days after siRNA transfection
- Conditions: bacterial LPS (TLR4 ligand), 10 ng/ml
- Read-out: 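TNF firefly reporter luminescence divided by renilla, normalised to the plate median, then turned into a robust z-score for each replicate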
- Scale: TNF reporter robust z-score: higher = stronger TNF reporter response to LPS
- Call rule: 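a well is active when its z-score exceeds 2.8 or falls below -1.5; control wells carry no call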

| gene | TNF reporter robust z-score | call |
| --- | --- | --- |
| TSR1 (TSR1 ribosome maturation factor) | -0.01 | inactive |
| TSR1 (TSR1 ribosome maturation factor) | 0.23 | inactive |
| TSR1 (TSR1 ribosome maturation factor) | 0.68 | inactive |
| TSR1 (TSR1 ribosome maturation factor) | 0.22 | inactive |
| OR1J4 (olfactory receptor family 1 subfamily J member 4) | 2.34 | inactive |
| OR1J4 (olfactory receptor family 1 subfamily J member 4) | 1.76 | inactive |
| OR1J4 (olfactory receptor family 1 subfamily J member 4) | 0.95 | inactive |
| OR1J4 (olfactory receptor family 1 subfamily J member 4) | -0.08 | inactive |
| PFDN5 (prefoldin subunit 5) | -0.07 | inactive |
| PFDN5 (prefoldin subunit 5) | -0.36 | inactive |
| PFDN5 (prefoldin subunit 5) | -0.65 | inactive |
| PFDN5 (prefoldin subunit 5) | -0.6 | inactive |
| TAF7L (TATA-box binding protein associated factor 7 like) | 0 | inactive |
| TAF7L (TATA-box binding protein associated factor 7 like) | 0.32 | inactive |
| TAF7L (TATA-box binding protein associated factor 7 like) | -0.47 | inactive |
| TAF7L (TATA-box binding protein associated factor 7 like) | -0.23 | inactive |
| TCP10L3 (t-complex 10 like 3 (pseudogene)) | -0.27 | inactive |
| TCP10L3 (t-complex 10 like 3 (pseudogene)) | -0.92 | inactive |
| TCP10L3 (t-complex 10 like 3 (pseudogene)) | -0.64 | inactive |
| TCP10L3 (t-complex 10 like 3 (pseudogene)) | 0.5 | inactive |
| GRK4 (G protein-coupled receptor kinase 4) | -1.02 | inactive |
| GRK4 (G protein-coupled receptor kinase 4) | -0.97 | inactive |
| GRK4 (G protein-coupled receptor kinase 4) | -0.7 | inactive |
| GRK4 (G protein-coupled receptor kinase 4) | -0.3 | inactive |

Next part (4 carried over from the part before).
| gene | TNF reporter robust z-score | call |
| --- | --- | --- |
| GRK4 (G protein-coupled receptor kinase 4) | -1.02 | inactive |
| GRK4 (G protein-coupled receptor kinase 4) | -0.97 | inactive |
| GRK4 (G protein-coupled receptor kinase 4) | -0.7 | inactive |
| GRK4 (G protein-coupled receptor kinase 4) | -0.3 | inactive |
| EFNB3 (ephrin B3) | -0.35 | inactive |
| EFNB3 (ephrin B3) | 2.31 | inactive |
| EFNB3 (ephrin B3) | 0.16 | inactive |
| EFNB3 (ephrin B3) | -0.96 | inactive |
| GALNT14 (polypeptide N-acetylgalactosaminyltransferase 14) | 1.41 | inactive |
| GALNT14 (polypeptide N-acetylgalactosaminyltransferase 14) | 1.94 | inactive |
| GALNT14 (polypeptide N-acetylgalactosaminyltransferase 14) | 1.15 | inactive |
| GALNT14 (polypeptide N-acetylgalactosaminyltransferase 14) | 2.07 | inactive |
| ZNF839 (zinc finger protein 839) | -0.23 | inactive |
| ZNF839 (zinc finger protein 839) | -0.54 | inactive |
| ZNF839 (zinc finger protein 839) | -0.22 | inactive |
| ZNF839 (zinc finger protein 839) | 0.37 | inactive |
| SMYD5 (SMYD family member 5) | 1.4 | inactive |
| SMYD5 (SMYD family member 5) | 1.66 | inactive |
| SMYD5 (SMYD family member 5) | 0.06 | inactive |
| SMYD5 (SMYD family member 5) | 2.08 | inactive |
| MROH8 (maestro heat like repeat family member 8) | 0.31 | inactive |
| MROH8 (maestro heat like repeat family member 8) | 0.43 | inactive |
| MROH8 (maestro heat like repeat family member 8) | 0.59 | inactive |
| MROH8 (maestro heat like repeat family member 8) | 0.6 | inactive |
| CHCHD6 (coiled-coil-helix-coiled-coil-helix domain containing 6) | 0.76 | inactive |
| CHCHD6 (coiled-coil-helix-coiled-coil-helix domain containing 6) | 1.88 | inactive |
| CHCHD6 (coiled-coil-helix-coiled-coil-helix domain containing 6) | 0.23 | inactive |
| CHCHD6 (coiled-coil-helix-coiled-coil-helix domain containing 6) | 0.4 | inactive |
